{"sequences": {"note": "The chains behind the UniProt entries cited, without tags or fusion partners. Where a name states a change or a piece, a line headed by the entry shows the natural chain unless it says otherwise.", "UniProt Q15771": "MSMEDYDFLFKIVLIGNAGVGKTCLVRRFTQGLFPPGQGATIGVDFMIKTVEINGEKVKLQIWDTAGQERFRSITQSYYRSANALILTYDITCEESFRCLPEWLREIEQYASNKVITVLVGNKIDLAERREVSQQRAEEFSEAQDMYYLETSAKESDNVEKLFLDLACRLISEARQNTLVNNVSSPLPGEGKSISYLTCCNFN", "UniProt Q09028, whole entry, looked up": "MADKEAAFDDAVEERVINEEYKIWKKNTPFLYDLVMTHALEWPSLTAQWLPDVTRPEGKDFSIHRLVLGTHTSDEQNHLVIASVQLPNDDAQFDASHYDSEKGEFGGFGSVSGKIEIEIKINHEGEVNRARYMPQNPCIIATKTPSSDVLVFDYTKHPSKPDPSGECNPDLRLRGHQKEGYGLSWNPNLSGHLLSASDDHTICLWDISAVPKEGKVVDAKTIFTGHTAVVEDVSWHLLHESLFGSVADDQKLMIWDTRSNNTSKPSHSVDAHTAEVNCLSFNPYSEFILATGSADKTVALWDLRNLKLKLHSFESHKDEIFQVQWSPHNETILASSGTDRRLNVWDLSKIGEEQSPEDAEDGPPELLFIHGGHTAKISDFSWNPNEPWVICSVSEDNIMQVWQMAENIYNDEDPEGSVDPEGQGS", "UniProt O95716": "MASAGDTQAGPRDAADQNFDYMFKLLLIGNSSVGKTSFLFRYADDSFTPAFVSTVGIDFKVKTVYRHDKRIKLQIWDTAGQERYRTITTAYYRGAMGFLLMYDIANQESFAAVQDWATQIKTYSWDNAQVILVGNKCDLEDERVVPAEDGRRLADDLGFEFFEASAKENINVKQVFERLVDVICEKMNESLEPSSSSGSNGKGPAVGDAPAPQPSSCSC", "UniProt P20337": "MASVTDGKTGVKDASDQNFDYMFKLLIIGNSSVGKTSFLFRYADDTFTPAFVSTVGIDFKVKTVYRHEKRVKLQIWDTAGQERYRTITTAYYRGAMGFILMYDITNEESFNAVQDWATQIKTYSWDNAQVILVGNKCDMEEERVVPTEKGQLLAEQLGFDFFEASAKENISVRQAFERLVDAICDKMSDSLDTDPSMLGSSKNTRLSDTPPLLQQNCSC", "UniProt A4D1S5": "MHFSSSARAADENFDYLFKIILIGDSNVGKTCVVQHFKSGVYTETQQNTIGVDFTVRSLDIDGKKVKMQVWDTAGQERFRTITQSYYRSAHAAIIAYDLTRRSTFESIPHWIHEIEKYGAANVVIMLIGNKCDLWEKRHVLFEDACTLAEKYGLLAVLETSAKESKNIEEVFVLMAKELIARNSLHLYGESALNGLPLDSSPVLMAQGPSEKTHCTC", "UniProt Q9H6Z4": "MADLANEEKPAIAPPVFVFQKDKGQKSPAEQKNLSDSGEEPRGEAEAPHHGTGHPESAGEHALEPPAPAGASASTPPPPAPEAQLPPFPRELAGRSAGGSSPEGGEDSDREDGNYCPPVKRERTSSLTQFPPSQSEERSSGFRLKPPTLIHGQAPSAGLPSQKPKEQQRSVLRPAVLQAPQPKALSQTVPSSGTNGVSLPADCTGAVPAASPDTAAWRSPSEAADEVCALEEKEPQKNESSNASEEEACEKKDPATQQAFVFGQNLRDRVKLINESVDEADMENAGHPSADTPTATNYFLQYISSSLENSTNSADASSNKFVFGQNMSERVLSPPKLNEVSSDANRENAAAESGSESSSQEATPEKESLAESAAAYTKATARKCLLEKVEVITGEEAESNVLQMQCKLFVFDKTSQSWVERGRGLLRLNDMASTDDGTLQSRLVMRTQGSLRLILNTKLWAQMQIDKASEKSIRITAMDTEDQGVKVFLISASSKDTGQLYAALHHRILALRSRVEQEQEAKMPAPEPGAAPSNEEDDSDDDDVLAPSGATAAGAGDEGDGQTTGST", "UniProt Q7Z6E9": "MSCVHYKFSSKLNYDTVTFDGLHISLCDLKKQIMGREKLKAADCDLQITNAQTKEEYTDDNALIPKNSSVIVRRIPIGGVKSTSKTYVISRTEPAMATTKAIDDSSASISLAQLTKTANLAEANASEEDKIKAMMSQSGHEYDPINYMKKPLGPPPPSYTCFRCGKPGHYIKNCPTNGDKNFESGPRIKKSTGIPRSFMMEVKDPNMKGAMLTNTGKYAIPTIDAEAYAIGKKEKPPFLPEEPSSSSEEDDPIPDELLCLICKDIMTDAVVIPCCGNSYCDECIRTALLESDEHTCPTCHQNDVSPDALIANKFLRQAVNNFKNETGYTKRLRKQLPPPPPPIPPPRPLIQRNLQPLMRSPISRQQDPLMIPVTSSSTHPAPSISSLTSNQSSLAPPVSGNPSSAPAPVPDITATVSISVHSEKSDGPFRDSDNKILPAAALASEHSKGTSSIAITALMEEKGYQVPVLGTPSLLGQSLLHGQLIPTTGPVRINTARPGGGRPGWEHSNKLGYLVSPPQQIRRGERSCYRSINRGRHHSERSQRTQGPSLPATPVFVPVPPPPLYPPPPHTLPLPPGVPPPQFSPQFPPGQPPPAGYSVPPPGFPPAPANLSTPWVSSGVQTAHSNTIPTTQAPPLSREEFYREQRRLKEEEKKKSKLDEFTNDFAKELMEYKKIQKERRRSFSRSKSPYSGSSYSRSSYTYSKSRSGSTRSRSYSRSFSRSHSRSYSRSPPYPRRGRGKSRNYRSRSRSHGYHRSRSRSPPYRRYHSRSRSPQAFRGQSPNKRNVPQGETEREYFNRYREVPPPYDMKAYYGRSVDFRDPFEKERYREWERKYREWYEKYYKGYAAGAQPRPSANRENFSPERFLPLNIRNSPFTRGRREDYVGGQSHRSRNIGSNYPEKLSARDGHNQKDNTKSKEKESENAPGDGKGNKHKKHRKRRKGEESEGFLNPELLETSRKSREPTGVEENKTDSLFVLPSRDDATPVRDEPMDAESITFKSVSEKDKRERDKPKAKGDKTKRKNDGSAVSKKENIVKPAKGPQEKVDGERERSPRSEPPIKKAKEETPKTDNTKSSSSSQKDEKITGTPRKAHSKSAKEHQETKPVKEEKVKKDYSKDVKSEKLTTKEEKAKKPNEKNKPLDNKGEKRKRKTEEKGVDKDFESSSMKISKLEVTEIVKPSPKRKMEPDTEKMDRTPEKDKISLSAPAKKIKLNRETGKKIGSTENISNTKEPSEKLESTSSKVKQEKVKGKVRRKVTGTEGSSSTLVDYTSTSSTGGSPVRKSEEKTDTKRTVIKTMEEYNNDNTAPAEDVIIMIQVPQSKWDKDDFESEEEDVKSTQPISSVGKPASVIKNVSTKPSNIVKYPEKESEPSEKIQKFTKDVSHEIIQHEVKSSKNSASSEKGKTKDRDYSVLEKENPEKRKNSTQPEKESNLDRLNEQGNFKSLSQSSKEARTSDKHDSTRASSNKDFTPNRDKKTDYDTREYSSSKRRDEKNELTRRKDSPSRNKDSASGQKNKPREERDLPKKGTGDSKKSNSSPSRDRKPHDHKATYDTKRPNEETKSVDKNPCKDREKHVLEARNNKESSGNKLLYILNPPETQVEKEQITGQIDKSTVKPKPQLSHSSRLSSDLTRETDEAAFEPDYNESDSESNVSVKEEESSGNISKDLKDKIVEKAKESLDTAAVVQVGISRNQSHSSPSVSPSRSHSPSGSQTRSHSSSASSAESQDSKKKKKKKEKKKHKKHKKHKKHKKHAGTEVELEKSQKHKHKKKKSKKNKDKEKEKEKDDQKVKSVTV", "UniProt Q15311": "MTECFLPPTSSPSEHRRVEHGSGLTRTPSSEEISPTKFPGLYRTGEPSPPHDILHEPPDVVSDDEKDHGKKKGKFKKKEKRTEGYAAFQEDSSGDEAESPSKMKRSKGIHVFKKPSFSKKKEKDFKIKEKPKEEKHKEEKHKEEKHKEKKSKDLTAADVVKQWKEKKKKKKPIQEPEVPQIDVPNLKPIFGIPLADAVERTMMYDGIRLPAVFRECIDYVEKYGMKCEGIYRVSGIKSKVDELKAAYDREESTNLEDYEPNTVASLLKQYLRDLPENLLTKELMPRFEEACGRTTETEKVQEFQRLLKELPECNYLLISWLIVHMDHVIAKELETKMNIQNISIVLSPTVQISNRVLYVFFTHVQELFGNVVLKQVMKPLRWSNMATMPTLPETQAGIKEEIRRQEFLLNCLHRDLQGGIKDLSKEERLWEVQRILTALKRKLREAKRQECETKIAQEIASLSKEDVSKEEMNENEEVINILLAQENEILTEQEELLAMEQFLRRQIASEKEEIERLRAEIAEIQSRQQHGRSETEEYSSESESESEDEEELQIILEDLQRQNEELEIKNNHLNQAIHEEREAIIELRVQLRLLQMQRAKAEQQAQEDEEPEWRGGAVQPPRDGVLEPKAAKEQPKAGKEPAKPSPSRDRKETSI", "UniProt Q8TEU7": "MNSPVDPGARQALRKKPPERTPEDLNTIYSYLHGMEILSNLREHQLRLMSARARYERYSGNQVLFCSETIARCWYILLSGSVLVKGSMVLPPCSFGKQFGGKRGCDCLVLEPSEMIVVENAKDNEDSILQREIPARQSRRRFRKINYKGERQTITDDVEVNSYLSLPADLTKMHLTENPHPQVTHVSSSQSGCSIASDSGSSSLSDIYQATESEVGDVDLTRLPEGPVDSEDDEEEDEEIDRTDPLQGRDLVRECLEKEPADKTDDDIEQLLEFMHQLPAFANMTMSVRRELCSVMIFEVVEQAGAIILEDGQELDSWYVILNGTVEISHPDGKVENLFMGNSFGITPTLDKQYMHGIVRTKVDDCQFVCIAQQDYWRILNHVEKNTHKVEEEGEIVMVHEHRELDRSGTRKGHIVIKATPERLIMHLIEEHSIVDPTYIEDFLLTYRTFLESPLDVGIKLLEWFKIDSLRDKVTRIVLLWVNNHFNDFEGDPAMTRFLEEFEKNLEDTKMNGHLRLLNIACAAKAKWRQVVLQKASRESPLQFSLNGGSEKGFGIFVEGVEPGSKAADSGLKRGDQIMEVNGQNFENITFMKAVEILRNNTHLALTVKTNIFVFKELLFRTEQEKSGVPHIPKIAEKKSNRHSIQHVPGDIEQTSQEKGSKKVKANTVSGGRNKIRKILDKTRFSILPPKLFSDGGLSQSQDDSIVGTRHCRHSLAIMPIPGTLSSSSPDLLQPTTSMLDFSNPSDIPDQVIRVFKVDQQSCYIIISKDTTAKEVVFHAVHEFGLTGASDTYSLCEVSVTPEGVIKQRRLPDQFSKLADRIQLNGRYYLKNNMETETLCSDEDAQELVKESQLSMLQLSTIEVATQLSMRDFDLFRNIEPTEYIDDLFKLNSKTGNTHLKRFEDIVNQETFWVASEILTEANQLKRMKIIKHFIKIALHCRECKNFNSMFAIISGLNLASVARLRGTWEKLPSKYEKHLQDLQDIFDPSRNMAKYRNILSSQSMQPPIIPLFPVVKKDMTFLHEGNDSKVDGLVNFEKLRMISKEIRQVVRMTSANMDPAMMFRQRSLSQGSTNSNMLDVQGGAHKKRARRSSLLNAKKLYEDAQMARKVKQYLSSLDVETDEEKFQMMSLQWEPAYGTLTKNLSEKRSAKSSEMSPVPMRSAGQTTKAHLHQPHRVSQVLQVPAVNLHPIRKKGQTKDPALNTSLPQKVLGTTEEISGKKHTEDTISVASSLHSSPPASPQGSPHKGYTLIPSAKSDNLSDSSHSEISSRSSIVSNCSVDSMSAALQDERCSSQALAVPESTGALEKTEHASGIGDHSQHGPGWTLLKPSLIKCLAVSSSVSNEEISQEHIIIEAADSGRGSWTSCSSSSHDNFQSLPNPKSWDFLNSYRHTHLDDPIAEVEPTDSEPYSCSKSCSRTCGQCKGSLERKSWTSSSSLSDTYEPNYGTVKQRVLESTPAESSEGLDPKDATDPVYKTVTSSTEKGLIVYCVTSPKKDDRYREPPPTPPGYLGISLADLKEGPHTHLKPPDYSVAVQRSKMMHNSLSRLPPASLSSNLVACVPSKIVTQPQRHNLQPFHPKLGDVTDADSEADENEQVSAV", "UniProt Q15291, whole entry, looked up": "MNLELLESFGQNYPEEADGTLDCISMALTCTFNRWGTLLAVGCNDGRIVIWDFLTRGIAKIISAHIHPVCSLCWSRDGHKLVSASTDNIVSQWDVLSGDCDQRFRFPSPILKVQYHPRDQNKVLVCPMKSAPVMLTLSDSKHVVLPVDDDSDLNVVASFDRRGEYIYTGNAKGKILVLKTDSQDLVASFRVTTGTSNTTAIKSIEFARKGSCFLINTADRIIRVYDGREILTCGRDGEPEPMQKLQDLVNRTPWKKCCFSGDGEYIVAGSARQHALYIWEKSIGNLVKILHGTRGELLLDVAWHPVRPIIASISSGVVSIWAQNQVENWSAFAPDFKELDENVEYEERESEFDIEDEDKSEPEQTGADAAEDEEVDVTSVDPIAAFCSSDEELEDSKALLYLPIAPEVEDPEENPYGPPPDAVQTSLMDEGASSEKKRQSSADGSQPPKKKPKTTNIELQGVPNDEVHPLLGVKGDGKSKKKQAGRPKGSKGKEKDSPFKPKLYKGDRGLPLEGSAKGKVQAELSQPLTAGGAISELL"}, "source": "the supplement of paper PMC10849652", "note": "The other results are listed elsewhere or left out."}
{"compound": "CN1CCN(CCOc2cc(OC3CCOCC3)c3c(Nc4c(Cl)ccc5c4OCO5)ncnc3c2)CC1 [saracatinib]", "experiment": "log2 fold change, soluble protein after heating vs DMSO (PISA); higher = thermal stabilisation; K562 cells, 10 uM, 30 min; active = over 0.2 and 3.5 SD of the protein, either way, in both replicates (recomputed)", "summary_of_the_method": "(§1)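 K562 cells at 2×10^6 cells/mL were treated with 10 μM compound for 30 min. Aliquots were heated for 3 min across 48°C-58°C, pooled, and extracted in PBS with 0.5% NP-40 at 4°C; soluble protein was the supernatant after 21,000xg for 90 min. Soluble protein was quantified by TMTpro 16plex LC-MS/MS with channel sums equalised, and reported as log2 fold change in thermal stability against DMSO controls, with values from duplicates.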"}
{"target": "RALGPS2 (UniProt Q86X27)", "log2 fold change": "inactive: -0.042"}
{"target": "RAB30 (UniProt Q15771)", "log2 fold change": "inactive: 0.023"}
{"target": "RBBP4 isoform 2 (UniProt Q09028)", "log2 fold change": "inactive: 0.182"}
{"target": "RAB28 (UniProt P51157)", "log2 fold change": "inactive: -0.021"}
{"target": "RASA3 (UniProt Q14644)", "log2 fold change": "inactive: -0.748"}
{"target": "RAD17 (UniProt O75943)", "log2 fold change": "inactive: -0.095"}
{"target": "RAP1B (UniProt F5GWU8)", "log2 fold change": "inactive: 0.104"}
{"target": "RAB3D (UniProt O95716)", "log2 fold change": "inactive: 0.295"}
{"compound": "CN1CCN(c2nc(C3=C(c4c[nH]c5ccccc45)C(=O)NC3=O)c3ccccc3n2)CC1 [sotrastaurin]", "experiment": "log2 fold change, soluble protein after heating vs DMSO (PISA); higher = thermal stabilisation; K562 cells, 10 uM, 30 min; active = over 0.2 and 3.5 SD of the protein, either way, in both replicates (recomputed)", "summary_of_the_method": "as §1"}
{"target": "RAI1 (UniProt Q7Z5J4)", "log2 fold change": "inactive: 0.357"}
{"target": "RAB3B (UniProt P20337)", "log2 fold change": "inactive: -0.053"}
{"target": "RAPGEF1 isoform 3 (UniProt Q13905)", "log2 fold change": "inactive: 0.041"}
{"target": "RAB19 isoform 2 (UniProt A4D1S5)", "log2 fold change": "inactive: 0.144"}
{"target": "RAB3IL1 (UniProt E9PK89)", "log2 fold change": "inactive: -0.082"}
{"target": "RBBP9 (UniProt O75884)", "log2 fold change": "inactive: 0.066"}
{"target": "RANBP3 isoform 2 (UniProt Q9H6Z4)", "log2 fold change": "inactive: 0.109"}
{"target": "RANBP10 (UniProt Q6VN20)", "log2 fold change": "inactive: -0.262"}
{"target": "RBM28 (UniProt Q9NW13)", "log2 fold change": "inactive: 0.011"}
{"target": "RBBP6 (UniProt Q7Z6E9)", "log2 fold change": "inactive: 0.11"}
{"target": "RALBP1 (UniProt Q15311)", "log2 fold change": "inactive: -0.243"}
{"target": "RAPGEF6 isoform 4 (UniProt Q8TEU7)", "log2 fold change": "inactive: -0.06"}
{"target": "RBM26 isoform 3 (UniProt Q5T8P6)", "log2 fold change": "inactive: -0.052"}
{"target": "RASSF1 (UniProt Q9NS23)", "log2 fold change": "inactive: -0.27"}
{"target": "RAB11FIP4 (UniProt Q86YS3)", "log2 fold change": "inactive: -0.019"}
{"target": "RBBP5 isoform 2 (UniProt Q15291)", "log2 fold change": "inactive: 0.091"}
{"compound": "CN1CC[C@H](c2c(O)cc(O)c3c(=O)cc(-c4ccccc4Cl)oc23)[C@H](O)C1 [alvocidib]", "experiment": "log2 fold change, soluble protein after heating vs DMSO (PISA); higher = thermal stabilisation; K562 cells, 10 uM, 30 min; active = over 0.2 and 3.5 SD of the protein, either way, in both replicates (recomputed)", "summary_of_the_method": "as §1"}
{"target": "RAB30 (UniProt Q15771)", "log2 fold change": "inactive: -0.249"}
{"target": "RANBP10 (UniProt Q6VN20)", "log2 fold change": "inactive: -0.033"}
{"target": "RBBP4 isoform 2 (UniProt Q09028)", "log2 fold change": "inactive: 0.063"}
{"target": "RBM28 (UniProt Q9NW13)", "log2 fold change": "inactive: -0.141"}
{"target": "RAB28 (UniProt P51157)", "log2 fold change": "inactive: 0.007"}
{"target": "RABEP2 (UniProt Q9H5N1)", "log2 fold change": "inactive: -0.046"}
{"target": "RASA3 (UniProt Q14644)", "log2 fold change": "inactive: -0.043"}
{"target": "RALBP1 (UniProt Q15311)", "log2 fold change": "inactive: -0.15"}
{"target": "RAPGEF6 isoform 4 (UniProt Q8TEU7)", "log2 fold change": "inactive: -0.129"}
{"target": "RAP1B (UniProt F5GWU8)", "log2 fold change": "inactive: -0.546"}
{"target": "RASSF3 (UniProt Q86WH2)", "log2 fold change": "inactive: 0.146"}
{"target": "RAB18 (UniProt H0Y6T8)", "log2 fold change": "inactive: 0.083"}
{"compound": "CN1CCc2c(c3ccccc3n2Cc2ccc(C(=O)NO)cc2)C1 [Tubastatin A]", "experiment": "log2 fold change, soluble protein after heating vs DMSO (PISA); higher = thermal stabilisation; K562 cells, 10 uM, 30 min; active = over 0.2 and 3.5 SD of the protein, either way, in both replicates (recomputed)", "summary_of_the_method": "as §1"}
{"target": "RAB3B (UniProt P20337)", "log2 fold change": "inactive: 0.071"}
{"target": "RALGPS2 (UniProt Q86X27)", "log2 fold change": "inactive: 0.18"}
{"target": "RAB3IL1 (UniProt E9PK89)", "log2 fold change": "inactive: -0.095"}
{"target": "RANBP3 isoform 2 (UniProt Q9H6Z4)", "log2 fold change": "inactive: -0.021"}
{"target": "RANBP10 (UniProt Q6VN20)", "log2 fold change": "inactive: 0.046"}
{"target": "RBBP6 (UniProt Q7Z6E9)", "log2 fold change": "inactive: 0.074"}
{"target": "RBBP8 isoform 2 (UniProt Q99708)", "log2 fold change": "inactive: 0.419"}
{"target": "RALBP1 (UniProt Q15311)", "log2 fold change": "inactive: -0.434"}
{"target": "RAPGEF6 isoform 4 (UniProt Q8TEU7)", "log2 fold change": "inactive: -0.248"}
{"target": "RAD17 (UniProt O75943)", "log2 fold change": "inactive: 0.156"}
{"target": "RAB18 (UniProt H0Y6T8)", "log2 fold change": "inactive: -0.006"}
{"target": "RAB3D (UniProt O95716)", "log2 fold change": "inactive: 0.024"}
{"target": "RBBP5 isoform 2 (UniProt Q15291)", "log2 fold change": "inactive: -0.035"}
{"compound": "CNC(=O)C1=CC=CC=C1NC2=NC(=NC=C2Cl)NC3=C(C=C(C=C3)N4CCOCC4)OC", "experiment": "log2 fold change, soluble protein after heating vs DMSO (PISA); higher = thermal stabilisation; K562 cells, 10 uM, 30 min; active = over 0.2 and 3.5 SD of the protein, either way, in both replicates (recomputed)", "summary_of_the_method": "as §1"}
{"target": "RAI1 (UniProt Q7Z5J4)", "log2 fold change": "inactive: -0.159"}
{"target": "RAB3B (UniProt P20337)", "log2 fold change": "inactive: -0.35"}
{"target": "RALGPS2 (UniProt Q86X27)", "log2 fold change": "inactive: -0.098"}
{"target": "RAB3IL1 (UniProt E9PK89)", "log2 fold change": "inactive: -0.011"}
{"target": "RBL1 (UniProt P28749)", "log2 fold change": "inactive: -0.203"}
{"target": "RANBP3 isoform 2 (UniProt Q9H6Z4)", "log2 fold change": "inactive: -0.043"}
{"target": "RAB30 (UniProt Q15771)", "log2 fold change": "inactive: 0.022"}
{"target": "RANBP10 (UniProt Q6VN20)", "log2 fold change": "inactive: 0.087"}
{"target": "RBBP4 isoform 2 (UniProt Q09028)", "log2 fold change": "inactive: -0.031"}
{"target": "RBM28 (UniProt Q9NW13)", "log2 fold change": "inactive: 0.079"}
{"target": "RBBP6 (UniProt Q7Z6E9)", "log2 fold change": "inactive: -0.006"}
{"target": "RAB28 (UniProt P51157)", "log2 fold change": "inactive: -0.064"}
{"target": "RABEP2 (UniProt Q9H5N1)", "log2 fold change": "inactive: 0.16"}
{"target": "RBBP8 isoform 2 (UniProt Q99708)", "log2 fold change": "inactive: -0.032"}
{"target": "RAPGEF6 isoform 4 (UniProt Q8TEU7)", "log2 fold change": "inactive: 0.028"}
{"target": "RASSF3 (UniProt Q86WH2)", "log2 fold change": "inactive: 0.055"}
{"target": "RAB3D (UniProt O95716)", "log2 fold change": "inactive: 0.022"}
{"target": "RBBP5 isoform 2 (UniProt Q15291)", "log2 fold change": "inactive: -0.127"}
